Results are given in words; binding and its absence hold for the method and conditions named. A result given as binding can be weak or reduced; the word gives no strength.
Target: Monkey SA (monkey)
Assay: SPR, BioRad ProteOn XPR36, albumin amine-coupled to GLC chip, 25 C

B1: PEP07986-neutral linker-A500 (protein)
chain: MGSLAEAKEAANAELDSYGVSDFYKRLIDKAKTVEGVEALKDAILAALPTGGGGSGGGSGGGSGGGSASVPIQKVQDDTKTLIKTIVTRINDISHTQSVSSKQKVTGLEFIPGLHPILTLSKMDQTLAVYQQILTSMPSRNVIQISNDLENLRDLLHVLAFSKSCHLPQASGLETLESLGGVLEASGYSTEVVALSRLQGSLQDMLQQLDLSPGC
- binding: binds

Source: patent publication US20180305430A1
